Among all 320,000 compounds or so, about 2,100 (0.66%) were called active. This list was built around the results that the source calls inconclusive (neither active nor inactive); the mix of calls is not that of the screen. Calls come from the whole dose curve; as a rule, active = well fitted inhibition curve with a large enough effect in the signal ratio, with a control signal flat (not every such curve was filed as active); inconclusive = small, poorly fitted or top-dose-only effect, or effect the other way, or a change in a side signal; inactive = flat fitted curve, though single readings scatter; the % refers to the signal ratio. Potencies beside an inconclusive call are fits to weak or partial responses and may not hold up.
test: qHTS Assay for Lipid Storage Modulators in Drosophila S3 Cells; settings: BODIPY lipid droplet fluorescence, 18-24 h, cells fed with added oleic acid; lipid storage change, negative = inhibition: at 46.1 µM (top of the series) unless noted
Method in brief: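 Drosophila S3 cells loaded with oleic acid (400 uM, as added) and compounds at several concentrations; lipid droplets imaged by 488-nm laser-scanning cytometry, 500–530 nm intensity and object ratio to cell channel. Percent activity normalized to 20 uM Triacsin C.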
% is set by controls: 0 for no effect and ±100 for the full control effect; potency is the fitted concentration of half-maximal effect.

Structure (SMILES) | lipid storage change, negative = inhibition | Potency
Cc1ccc2c(CNCc3ccccc3)cc(=O)oc2c1 | inconclusive: -72.2% | –
COc1ccccc1CNC(=O)COC(=O)COc1ccccc1Cc1ccccc1 | inconclusive | –
O=S(=O)(N/N=C1/CCCc2ccccc21)c1ccc(Br)cc1 | inconclusive: -14.5% | –
COC(=O)C1CN(S(=O)(=O)c2ccc(C)cc2)CCN1S(=O)(=O)c1ccc(C)cc1 (stereo not given) | inconclusive: 17% | –
COC(=O)[C@@]1(Cc2ccccc2)[C@@H]2C(=CC(=O)[C@H]2CC(=O)C(=O)N(C)C)CN1C(=O)c1ccccc1 | inconclusive: -0.242% | –
CC(=O)Nc1ccc(S(=O)(=O)Nc2ccc(S(=O)(=O)Nc3ncccn3)cc2)cc1 | – | inconclusive: 4.11 µM [falling, single point]
CC1=CC(C)(C)n2c(O)c(N=NC(N)=S)c3c(C)c(C)cc1c32 | – | inconclusive: 4.11 µM [falling, single point]
O=C(Nc1ccc(-c2noc(CCc3ccccc3)n2)cc1)c1cccnc1 | – | inconclusive: 2.59 µM [rising, partial curve]
CCC(=O)N1C(C(=O)O)CSC1c1ccc(OC)cc1 (stereo not given) | – | inconclusive: 2.59 µM [activator, single point]
O=C(N/N=C1\CCSc2ccc(F)cc21)c1cccnc1 | inconclusive: 12.8% | –
CS(=O)(=O)c1ccccc1-c1nc(-c2cccc(Cl)c2)no1 | inconclusive: 4.81% | –
Nc1nonc1N1CCCCC1 | – | inconclusive: 29.1 µM [falling, single point]
Cc1ccc(SCCC(=O)N2CCN(S(=O)(=O)c3ccccc3)CC2)cc1 | inconclusive: 36.3% | –
O=C(NCc1ccco1)c1ccc2c(c1)C(=O)N(C1CCCCC1)C2=O | inconclusive: -13.5% | –
COc1ccc(NC(=O)C(=O)c2cn(CC(=O)N3CCOCC3)c3ccccc23)cc1OC | – | inconclusive: 6.51 µM [activator, single point]
Cc1cc2c(cc1C)NC(c1nc3ccccc3[nH]1)C1=C(CC(C)(C)CC1=O)N2 (stereo not given) | inconclusive: 30.8% | –
CN(CC(=O)Nc1c(Cl)cccc1Cl)C(=O)CNC(=O)c1ccc2c(c1)OCO2 | – | inconclusive: 0.259 µM [activator, full curve, poor fit]
CC1CN(c2cc3nccnc3cc2F)CC(C)O1 (stereo not given) | inconclusive: 8.6% | –
CC(/C=N\N1CCN(Cc2ccc(C)cc2)CC1)=C\c1ccccc1 | – | inconclusive: 20.6 µM [falling, single point]
O=C(c1ccccc1)C1CCN(C(=O)c2ccc(Cl)cc2)CC1 | inconclusive: 42.9% | –

Entries listed so far that have four or more nitrogen atoms (5):
Structure (SMILES) | lipid storage change, negative = inhibition | Potency
CC(=O)Nc1ccc(S(=O)(=O)Nc2ccc(S(=O)(=O)Nc3ncccn3)cc2)cc1 | – | inconclusive: 4.11 µM [falling, single point]
CC1=CC(C)(C)n2c(O)c(N=NC(N)=S)c3c(C)c(C)cc1c32 | – | inconclusive: 4.11 µM [falling, single point]
O=C(Nc1ccc(-c2noc(CCc3ccccc3)n2)cc1)c1cccnc1 | – | inconclusive: 2.59 µM [rising, partial curve]
Nc1nonc1N1CCCCC1 | – | inconclusive: 29.1 µM [falling, single point]
Cc1cc2c(cc1C)NC(c1nc3ccccc3[nH]1)C1=C(CC(C)(C)CC1=O)N2 (stereo not given) | inconclusive: 30.8% | –

Remaining list, next part:

Structure (SMILES) | lipid storage change, negative = inhibition | Potency
O=C(CO/N=C/c1ccccc1OC(F)F)N1CCc2ccccc21 | inconclusive: 4.83% | –
CCn1c(SCC(=O)Nc2nc(C)cs2)nnc1C(C)NC(=O)c1ccccc1 (stereo not given) | – | inconclusive: 5.17 µM [falling, single point]
Cc1c(CCC(C)C)c(=O)n2c([nH]c3ccccc32)c1C#N | – | inconclusive: 0.92 µM [activator, partial curve, poor fit]
Cc1cccc(Nc2nn3c(=O)c4ccccc4nc3s2)c1 | inconclusive: -18.3% | –
O=C(c1ccccc1)N1CCN=C1SCc1ccc([N+](=O)[O-])cc1 | inactive: 0.791% | –
Cc1cc(N=Nc2ccccc2C(=O)O)c(C)c(C)c1O | inconclusive: -3.27% | –
O=C(/C=C/c1ccccc1)N(c1ccccn1)C1CCCCC1 | – | inconclusive: 8.2 µM [activator, partial curve]
CN(CC(=O)NCc1ccncc1)S(=O)(=O)c1cc(Cl)ccc1Cl | – | inconclusive: 29.1 µM [activator, single point]
Cc1cc(C(=O)NC2CCCc3c2cnn3-c2cccc(C)c2C)n(C)n1 (stereo not given) | – | active: 0.92 µM
COc1ccc(C(=O)NN2CCOCC2)cc1[N+](=O)[O-] | inconclusive: -11.4% | –
Cc1cc(Cl)ccc1OCC(=O)NNC(=O)c1ccco1 | inconclusive: -67.4% | –
CN(C(=O)COC(=O)c1ccccc1SCC(=O)N1CCCC1)C1(C#N)CCCCC1 | – | inconclusive: 0.731 µM [activator, full curve, poor fit]
COc1ccc(C(=O)CSc2n[nH]c(=O)[nH]c2=O)cc1 | inconclusive: -10% | –
Cc1ccc(-c2cc(-c3ccc4c(c3)OCO4)c(C#N)c(N)n2)o1 | inconclusive: 30.6% | –
CCCS(=O)(=O)N1CCCC(C(=O)NCCN2CCOCC2)C1 (stereo not given) | inconclusive: -58.5% | –
COc1ccc2cc(C3(C)NC(=O)NC3=O)ccc2c1 (stereo not given) | inconclusive: 2.82% | –
Cc1ccc(S(=O)(=O)c2c(C)c(C)c(C)[nH]c2=O)cc1 | inconclusive: 7.3% | –
CC1CCc2c(sc3ncnc(SCC(=O)Nc4ccc(C(=O)O)cc4)c23)C1 (stereo not given) | – | inconclusive: 5.8 µM [activator, single point]
Cc1ccccc1NC(=S)Nc1cccc2cnccc12 | – | inconclusive: 29.1 µM [activator, single point]
CS(=O)(=O)N(CC(=O)N1CCc2ccccc2C1)c1ccc2c(c1)OCO2 | – | inconclusive: 3.26 µM [activator, partial curve]
